Results as given in patent publication US20080103205A1, “Pesticidal compositions and methods of use” (priority 2006, published 2008).

Test system: Drosophila melanogaster
Test: Toxicity against adult Drosophila melanogaster, sugar solution feeding
Assay type: in vivo
Description: Toxicity tests were conducted using mixed sex adults of D. melanogaster maintained on artificial diet in the department of entomology, Virginia Tech. Test concentrations of 6.25, 12.5, 25, 50 or 100 ppm were prepared in 0.2% dimethyl sulfoxide (DMSO) for DIDS, 9-AC, NPPB, and IAA-94. The above final concentrations were obtained after mixing them in 10 ml of 10% sugar solution. Similar preparations with 0.2% DMSO alone served as controls. One end of a cotton wick was dipped in 0.5 ml of sugar solution and placed on the glass vial containing 10 adult flies of mixed sex. Each concentration of test chemical had 5 replications. Mortality counts of flies were taken 24, 48, and 72 hrs after treatment. Insects without movement upon probing were considered dead. LC50 values and confidence intervals for each chemical were estimated using POLO PLUS software program. The data provided in Tables 3-A and 3-B below confirm that AT blockers are toxic to insects in acute exposures.

Compound	Slope (48 hr)	Slope (72 hr)
CC1(C2CCCC2)Cc2cc(OCC(=O)O)c(Cl)c(Cl)c2C1=O (single isomer, unassigned; (+)) [IAA-94, (+)(2-cyclopentyl-6,7-dichloro-2-methyl-1-oxo-5-indanyloxy) acetic acid]	1.65 ± 0.42	1.74 ± 0.41
O=C(O)c1c2ccccc2cc2ccccc12 [9-AC, anthracene-9-carboxylic acid]	1.74 ± 0.42	1.91 ± 0.47
O=S(=O)(O)c1cc(N=C=S)ccc1/C=C/c1ccc(N=C=S)cc1S(=O)(=O)O [DIDS, trans-4,4′-diisothiocyanatostilbene-2,2′-disulfonic acid, reference compound]	1.67 ± 0.37	1.88 ± 0.41
O=C(O)c1cc([N+](=O)[O-])ccc1NCCCc1ccccc1 [NPPB, 5-Nitro-2-(3-phenylpropylamino)benzoic acid]	1.38 ± 0.49	1.77 ± 0.37
